For at least one compound, name, drawing or mass did not settle the structure.
Columns and labels:
Type in all cases: in vivo
[1] = tested on: lactic acid bacteria belonging to genus Lactobacillus; assay: Growth effect on lactic acid bacteria in human intestine by intake of 1-kestose (Example 1, fecal count, Mitsuoka method); settings: 10 g per day orally for 2 months; 5 mild diabetes subjects; before the intake 10^6.1 CFU/g-feces
Source text: (§1) Quantitative determination of intestinal lactic acid bacteria counts can be carried out by a conventional method. For example, the lactic acid bacteria counts can be quantitatively determined according to the Mitsuoka's method (Mitsuoka Tomotari, “Chounaikin no Sekai (The World of Intestinal Bacteria)”, Sobunsha Co., Ltd., Tokyo, p. 53-65) by sampling feces of a tested subject. The intestinal Bifidobacterium count can be similarly quantitatively determined.
(§2) A sample composition containing 99.4% of 1-kestose, 0.15% of acesulfame potassium, 0.32% of sucralose and 0.13% of Sweetness Enhancer ME-2208T (Trade Name) (Firmenich SA) was used (all by % by weight).
(§3) In a test, each 10 g per day of the sample composition was fed orally for 2 months to 7 male and female test subjects with mild diabetes in the age range of 20 to 70 years. Samples of the feces of the respective subjects were collected just before the start of intake (month 0), 2 months after the start of intake (month 2) and 1 month after the end of intake (month 3), and the lactic acid bacteria counts in the samples were quantitatively determined by the method of Mitsuoka (Mitsuoka Tomotari “Chounaikin no Sekai (The World of Intestinal Bacteria)” Sobunsha Co., Ltd., Tokyo, p. 53-65). Similarly, the Bifidobacterium counts in the samples were quantitatively determined. […]

[2] = tested on: Bifidobacterium; assay: Growth effect on Bifidobacterium in human feces by intake of 1-kestose (Example 1); settings: 10 g per day orally for 2 months; 5 mild diabetes subjects; before the intake 10^9.7 CFU/g-feces
Source text: as §1, §2, §3

[3] = tested on: Lactobacillus sp.; assay: Growth effect on lactic acid bacteria in human feces by intake of Meioligo P (Example 2); settings: fed as Meioligo P 3 g per day (1.05 g 1-kestose); 7 healthy females; before the intake 10^2.9 CFU/g; value less than detection limit put 0
Source text: as §1
(§4) As a sample composition, Meioligo P (Trade Name) (Meiji Seika Kaisha), which was a composition containing 35% of 1-kestose, 55% of nystose and 10% of fructo-furanosyl nystose, was used.
(§5) In a test, each 3 g per day of the sample composition (1.05 g based on the weight of 1-kestose) was fed orally for 2 months to 7 healthy female test subjects in the age range of 19 to 41 years. Samples of the feces of the respective subjects were then collected just before the start of intake (week 0), 2 weeks after the start of intake (week 2) and 2 weeks after the end of intake (week 4), and the lactic acid bacteria count and the Bifidobacterium count in the samples were quantitatively determined similarly to Example 1.
(§6) The changes of the lactic acid bacteria count and the Bifidobacterium count in the feces by the intake of 1-kestose with respect to the 7 subjects are shown in the Figures.

[4] = tested on: Bifidobacterium; assay: Growth effect on Bifidobacterium in human feces by intake of Meioligo P (Example 2); settings: fed as Meioligo P 3 g per day (1.05 g 1-kestose); 7 healthy females; before the intake 10^9.8 CFU/g
Source text: as §1, §4, §5, §6

OC[C@H]1O[C@@](CO)(OC[C@@]2(O[C@H]3O[C@H](CO)[C@@H](O)[C@H](O)[C@H]3O)O[C@H](CO)[C@@H](O)[C@@H]2O)[C@@H](O)[C@@H]1O [1-kestose]
mean Lactobacillus sp. count in feces after the intake [1]: 10^7.1 CFU/g-feces
mean Bifidobacterium count in feces after the intake [2]: 10^10.5 CFU/g-feces
mean Lactobacillus sp. count in feces after the intake [3]: 10^4.2 CFU/g
mean Bifidobacterium count in feces after the intake [4]: 10^10.1 CFU/g
